In publication PMC7235348:

Columns and labels:
[1] = target: T1, MgsR^C-Strep (Bacillus subtilis) (UniProt P54503); experiment: affinity purification with mass spectrometry; Strep-tag purification of MgsR^C-Strep without formaldehyde crosslinking, after 4% ethanol stress; SDS-PAGE with silver staining and MS of gel lanes
T1 sequence: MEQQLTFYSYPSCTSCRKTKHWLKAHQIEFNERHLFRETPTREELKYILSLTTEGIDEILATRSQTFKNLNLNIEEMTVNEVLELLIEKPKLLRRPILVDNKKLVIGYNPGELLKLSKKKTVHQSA

[2] = target: T1, MgsR^C-Strep (Bacillus subtilis); experiment: affinity purification with mass spectrometry; SPINE: in vivo crosslinking with 0.6% formaldehyde (20 min, 37°C) added 10 min after 4% ethanol, Strep-tag purification of MgsR^C-Strep from French-press lysate in buffer W (200 mM NaCl, 50 mM Tris/HCl, pH 8.0), crosslinks reversed by heating, gel lanes digested and analysed by MS; crosslinked wild-type 168 as negative control
[3] = target: T1, MgsR^C-Strep (Bacillus subtilis); experiment: as above; remark: listed apart in the source

ClpC ATPase (from UniProt P37571 1-810)
binding [1]: binds
binding [2]: binds

ClpX ATPase (from UniProt P50866 1-420)
binding [1]: binds
binding [2]: binds

RNA polymerase subunit RpoB (from UniProt P37870 1-1193)
binding [1]: binds
binding [2]: binds

chaperonin GroEL (from UniProt P28598 1-544)
binding [1]: binds

B1: LonA (protein, UniProt P37945 1-774)
chain: MAEELKRSIPLLPLRGLLVYPTMVLHLDVGRDKSVQALEQAMMHDHMIFLATQQDISIDEPGEDEIFTVGTYTKIKQMLKLPNGTIRVLVEGLKRAHIVKYNEHEDYTSVDIQLIHEDDSKDTEDEALMRTLLDHFDQYIKISKKISAETYAAVTDIEEPGRMADIVASHLPLKLKDKQDILETADVKDRLNKVIDFINNEKEVLEIEKKIGQRVKRSMERTQKEYYLREQMKAIQKELGDKEGKTGEVQTLTEKIEEAGMPDHVKETALKELNRYEKIPSSSAESSVIRNYIDWLVALPWTDETDDKLDLKEAGRLLDEEHHGLEKVKERILEYLAVQKLTKSLKGPILCLAGPPGVGKTSLAKSIAKSLGRKFVRISLGGVRDESEIRGHRRTYVGAMPGRIIQGMKKAGKLNPVFLLDEIDKMSSDFRGDPSSAMLEVLDPEQNSSFSDHYIEETFDLSKVLFIATANNLATIPGPLRDRMEIINIAGYTEIEKLEIVKDHLLPKQIKEHGLKKSNLQLRDQAILDIIRYYTREAGVRSLERQLAAICRKAAKAIVAEERKRITVTEKNLQDFIGKRIFRYGQAETEDQVGVVTGLAYTTVGGDTLSIEVSLSPGKGKLILTGKLGDVMRESAQAAFSYVRSKTEELGIEPDFHEKYDIHIHVPEGAVPKDGPSAGITMATALVSALTGRAVSREVGMTGEITLRGRVLPIGGLKEKALGAHRAGLTTIIAPKDNEKDIEDIPESVREGLTFILASHLDEVLEHALVGEKK
binding [3]: binds weakly

B2: McsB arginine kinase (enzyme, UniProt P37570 1-363)
chain: MSLKHFIQDALSSWMKQKGPESDIVLSSRIRLARNFEHIRFPTRYSNEEASSIIQQFEDQFSEQEIPGIGKFVLIRMNDAQPLEKRVLVEKHLISPNLTESPFGGCLLSENEEVSVMLNEEDHIRIQCLFPGFQLLEAMKAANQVDDWIEEKVDYAFNEQRGYLTSCPTNVGTGLRASVMMHLPALVLTRQINRIIPAINQLGLVVRGIYGEGSEAVGNIFQISNQITLGKSEQDIVEDLNSVAAQLIEQERSAREAIYQTSKIELEDRVYRSYGVLSNCRMIESKETAKCLSDVRLGIDLGIIKGLSSNILNELMILTQPGFLQQYSGGALRPNERDIRRAALIRERLHLEMNGKRQEDESI
binding [3]: binds

B3: RpoA, the α subunit of RNA polymerase (protein, UniProt P20429 1-314)
chain: MIEIEKPKIETVEISDDAKFGKFVVEPLERGYGTTLGNSLRRILLSSLPGAAVTSIQIDGVLHEFSTIEGVVEDVTTIILHIKKLALKIYSDEEKTLEIDVQGEGTVTAADITHDSDVEILNPDLHIATLGENASFRVRLTAQRGRGYTPADANKRDDQPIGVIPIDSIYTPVSRVSYQVENTRVGQVANYDKLTLDVWTDGSTGPKEAIALGSKILTEHLNIFVGLTDEAQHAEIMVEKEEDQKEKVLEMTIEELDLSVRSYNCLKRAGINTVQELANKTEEDMMKVRNLGRKSLEEVKAKLEELGLGLRKDD
binding [3]: binds

Results are given in words; binding and its absence hold for the method and conditions named. Binding seen in cells or lysates may run through a third protein. These calls come from enrichment with a bait or labelling near it, and not all partners need be listed.
